Reference: the supplement of paper PMC6658780
Counter-ions that a name gives are not always drawn. ± gives the standard deviation of the averaged measurements. Some of the results follow. This data set is noisy: repeats of one test often differ as much as different tests do.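 The A. baumannii clinical isolates were selected for resistance to the partner antibiotic; the screen seeks drugs that restore its effect. Background from coloured compounds is removed by subtracting the start-of-incubation reading.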

tested on: Acinetobacter baumannii WP-487; assay: percent growth inhibition of drug alone vs DMSO control; higher = more growth inhibition; details: antibiotic (0.125x MIC): none (0.1% DMSO); 7 µM
Procedure: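 Prestwick drugs tested at 20 uM and 7 uM with an antibiotic at 0.125x MIC (16 mg/L when MIC >128 mg/L) in cation-adjusted Mueller-Hinton broth, 384-well plates, duplicate runs on different days. Percent growth inhibition was computed from OD600 (24 h minus 0 h) relative to DMSO-only wells. Drug + 0.1% DMSO (no antibiotic) wells are also given. Only hits (max corrected inhibition > mean + 3SD) are listed. A. baumannii: NCTC-13301 was used for MEM/CIP/GEN/TGC and WP-487 for colistin. Duplicates with colistin are strongly discordant (run 2 near 100% for most drugs).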

SMILES	percent growth inhibition of drug alone
CC(Cc1ccccc1)NCCC(c1ccccc1)c1ccccc1 (stereo not given) [Prenylamine lactate]	0.836 ± 11%
CN[C@@H]1C[C@@H](c2ccc(Cl)c(Cl)c2)c2ccccc21 [Indatraline hydrochloride]	1.53 ± 6.4%
OC(c1ccccc1)(c1ccccc1)C1CCNCC1 [Azacyclonol]	7.14 ± 5.4%
CC(=O)O[C@H]1CC[C@@]2(C)C(=CC[C@@H]3[C@@H]2CC[C@]2(C)C(=O)CC[C@@H]32)C1 [Dehydroisoandosterone 3-acetate]	0.473 ± 11%
CC(C)c1c(CN(C)C(C)Cc2ccccc2)n(C)n(-c2ccccc2)c1=O (stereo not given) [Famprofazone]	4.57 ± 4.5%
CN1[C@@H]2CC[C@H]1C[C@@H](OC1c3ccccc3CCc3ccccc31)C2 [Deptropine citrate]	2.96 ± 3%
Fc1ccc(C(OCCN2CCN(CCCc3ccccc3)CC2)c2ccc(F)cc2)cc1	-6.16 ± 14%
CCC(=O)O[C@H]1CC[C@H]2[C@@H]3CCC4=CC(=O)CC[C@]4(C)[C@H]3CC[C@]12C [Testosterone propionate]	-3.84 ± 8.8%
C[C@]12CC[C@@H]3c4ccc(OC(=O)N(CCCl)CCCl)cc4CC[C@H]3[C@@H]1CC[C@@H]2O [Estramustine]	6.56 ± 0.46%
O=c1c2ccccc2[se]n1-c1ccccc1 [Ebselen]	5.62 ± 0.97%
Cc1cc(C(C#N)c2ccc(Cl)cc2)c(Cl)cc1NC(=O)c1cc(I)cc(I)c1O (stereo not given) [Closantel]	11.4 ± 0.91%
O=c1[nH]c2ccccc2n1C1CCN(CCCC(c2ccc(F)cc2)c2ccc(F)cc2)CC1 [Pimozide]	-3.69 ± 10%
COc1ccc(CCN2CCC(Nc3nc4ccccc4n3Cc3ccc(F)cc3)CC2)cc1 [Astemizole]	4.46 ± 5.8%
CN(C)C(=O)Oc1ccc[n+](C)c1 [Pyridostigmine iodide]	2.83 ± 7.9%
c1ccc2c(c1)Nc1ccccc1S2 [Phenothiazine]	3.41 ± 1.8%

same assay, conditions: antibiotic (0.125x MIC): none (0.1% DMSO); 20 µM

SMILES	percent growth inhibition of drug alone
CC(Cc1ccccc1)NCCC(c1ccccc1)c1ccccc1 (stereo not given) [Prenylamine lactate]	-0.0895 ± 2.3%
CN[C@@H]1C[C@@H](c2ccc(Cl)c(Cl)c2)c2ccccc21 [Indatraline hydrochloride]	4.31 ± 4.2%
OC(c1ccccc1)(c1ccccc1)C1CCNCC1 [Azacyclonol]	-3.09 ± 4.3%
CC(=O)O[C@H]1CC[C@@]2(C)C(=CC[C@@H]3[C@@H]2CC[C@]2(C)C(=O)CC[C@@H]32)C1 [Dehydroisoandosterone 3-acetate]	0.113 ± 4%
CC(C)c1c(CN(C)C(C)Cc2ccccc2)n(C)n(-c2ccccc2)c1=O (stereo not given) [Famprofazone]	-0.971 ± 5.2%
CN1[C@@H]2CC[C@H]1C[C@@H](OC1c3ccccc3CCc3ccccc31)C2 [Deptropine citrate]	1.62 ± 0.78%
Fc1ccc(C(OCCN2CCN(CCCc3ccccc3)CC2)c2ccc(F)cc2)cc1	-4.16 ± 4.7%
CCC(=O)O[C@H]1CC[C@H]2[C@@H]3CCC4=CC(=O)CC[C@]4(C)[C@H]3CC[C@]12C [Testosterone propionate]	-1.84 ± 2.2%
C[C@]12CC[C@@H]3c4ccc(OC(=O)N(CCCl)CCCl)cc4CC[C@H]3[C@@H]1CC[C@@H]2O [Estramustine]	4.77 ± 8.4%
O=c1c2ccccc2[se]n1-c1ccccc1 [Ebselen]	27.8 ± 29%
Cc1cc(C(C#N)c2ccc(Cl)cc2)c(Cl)cc1NC(=O)c1cc(I)cc(I)c1O (stereo not given) [Closantel]	23.5 ± 0.93%
O=c1[nH]c2ccccc2n1C1CCN(CCCC(c2ccc(F)cc2)c2ccc(F)cc2)CC1 [Pimozide]	5.44 ± 7.9%
COc1ccc(CCN2CCC(Nc3nc4ccccc4n3Cc3ccc(F)cc3)CC2)cc1 [Astemizole]	-0.743 ± 0.037%
CN(C)C(=O)Oc1ccc[n+](C)c1 [Pyridostigmine iodide]	0.311 ± 0.19%
c1ccc2c(c1)Nc1ccccc1S2 [Phenothiazine]	1.98 ± 1.9%
